Measured values reported in patent US9765049B2, “N-cycloalkyl-N-[(fusedphenyl)methylene]-(thio)carboxamide derivatives” (BAYER CROPSCIENCE AG, priority 2013, dated 2017).
Some results were stated once for a whole list of compounds, not compound by compound.

Tests used:
[1] = tested on: Fusarium nivale (var. majus); assay: Efficacy against Fusarium nivale (var. majus) (wheat), curative test; type: in vivo; conditions: dose of 250 ppm and 500 ppm
Experimental: Example I: Efficacy Against Fusarium nivale (Var. Majus) (Wheat) [table] To produce a suitable preparation of active compound, 1 part by weight of active compound or active compound combination is mixed with the stated amounts of solvent and emulsifier, and the concentrate is diluted with water to the desired concentration. […] After the spray coating has dried on, the plants remain in a greenhouse under translucent incubation cloches at a temperature of approximately 10° C. and a relative atmospheric humidity of approximately 100%.

[2] = tested on: Botrytis cinerea; assay: In vivo preventive test Botrytis cinerea (grey mould); conditions: dose of 100 ppm and 500 ppm, gherkin plants
Experimental: Example B: In Vivo Preventive Test Botrytis cinerea (Grey Mould) [table] The active ingredients are made soluble and homogenized in a mixture of Dimethyl sulfoxide/Acetone/Tween®80 and then diluted in water to the desired concentration. The young plants of gherkin are treated by spraying the active ingredient prepared as described above. Control plants are treated only with an aqueous solution of Acetone/Dimethyl sulfoxide/Tween® 80. After 24 hours, the plants are contaminated by spraying the leaves with an aqueous suspension of Botrytis cinerea spores. The contaminated gherkin plants are incubated for 4 to 5 days at 17° C. and at 90% relative humidity.

SMILES | protection [1] | protection [2]
CC1CCc2cccc(C(C)N(C(=O)c3c(C(F)F)nn(C)c3F)C3CC3)c2C1 (stereo not drawn) [50 from WO-2010/130767, N-cyclopropyl-3-(difluoromethyl)-5-fluoro-1-methyl-N-[1-(7-methyl-5,6,7,8-tetrahydronaphthalen-1-yl)ethyl]-1H-pyrazole-4-carboxamide] | less than 70% | –
Cn1nc(C(F)F)c(C(=O)N(Cc2cccc3ccccc23)C2CC2)c1F [CMP1, N-cyclopropyl-3-(difluoromethyl)-5-fluoro-1-methyl-N-(1-naphthylmethyl)-1H-pyrazole-4-carboxamide, reference compound] | – | less than 70%
Cc1nn(C)c(F)c1C(=O)N(Cc1cccc2c1CCCC2)C1CC1 [CMP2, N-cyclopropyl-5-fluoro-1,3-dimethyl-N-(5,6,7,8-tetrahydronaphthalen-1-ylmethyl)-1H-pyrazole-4-carboxamide, reference compound] | – | less than 70%
Cn1cc(C(=O)N(Cc2cccc3c2CCCC3)C2CC2)c(C(F)F)n1 [CMP3, N-cyclopropyl-3-(difluoromethyl)-1-methyl-N-(5,6,7,8-tetrahydronaphthalen-1-ylmethyl)-1H-pyrazole-4-carboxamide, reference compound] | – | less than 70%
Cc1nn(C)c(F)c1C(=O)N(C1CC1)C(C)c1cccc2c1CCCC2 (stereo not drawn) [CMP4, N-cyclopropyl-5-fluoro-1,3-dimethyl-N-[1-(5,6,7,8-tetrahydronaphthalen-1-yl)ethyl]-1H-pyrazole-4-carboxamide] | less than 70% | –
Cc1nn(C)c(F)c1C(=O)N(C1CC1)C(C)c1cccc2c1CCC(C)(C)C2 (stereo not drawn) [CMP5, N-cyclopropyl-N-[1-(6,6-dimethyl-5,6,7,8-tetrahydronaphthalen-1-yl)ethyl]-5-fluoro-1,3-dimethyl-1H-pyrazole-4-carboxamide] | less than 70% | –
